From publication PMC12767022
Results are given in words; binding and its absence hold for the method and conditions named.

The chains behind the UniProt entries cited, without tags or fusion partners.
UniProt Q9VCJ8: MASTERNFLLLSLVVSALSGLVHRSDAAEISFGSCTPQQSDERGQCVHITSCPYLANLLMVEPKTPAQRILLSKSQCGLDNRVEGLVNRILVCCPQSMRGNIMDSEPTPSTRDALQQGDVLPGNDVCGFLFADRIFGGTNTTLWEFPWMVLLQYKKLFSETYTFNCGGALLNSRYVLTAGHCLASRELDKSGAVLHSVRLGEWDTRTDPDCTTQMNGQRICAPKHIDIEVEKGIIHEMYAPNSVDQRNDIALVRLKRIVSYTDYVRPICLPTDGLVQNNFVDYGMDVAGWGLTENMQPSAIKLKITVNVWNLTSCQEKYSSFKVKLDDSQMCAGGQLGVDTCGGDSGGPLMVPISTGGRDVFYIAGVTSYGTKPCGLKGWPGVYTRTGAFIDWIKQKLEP

Molecular target: Spätzle processing protease (SPE), yeast hybrid fusion (Drosophila melanogaster) (UniProt Q9VCJ8)
Assay: two-hybrid; Gal4 yeast two-hybrid in strain Y2H Gold; bait in pGBKT7, prey in pGADT7, genes without signal peptide; growth on SD‐Leu‐Trp‐Ala‐His plus X‐gal; library screen with Spz as bait, pairwise verification and reciprocal assays with switched bait and prey

Spätzle processing protease (SPE), yeast hybrid fusion (from UniProt Q9VCJ8 1-400) (enzyme)
binding: no binding
